Measured values: PubChem BioAssay AID2551 (National Center for Advancing Translational Sciences (NCATS), 2010)
Out of some 310,000 compounds screened, about 17,000 (5.5%) were called active. Inconclusive means that the source gave no clear call. Such entries were picked first, then a sample of the others. The call rests on the fitted dose curve; in most records, active means well fitted inhibition curve with a large enough effect; inconclusive means small, poorly fitted or top-dose-only effect, or effect the other way; inactive means no such curve, though single readings can be large or run the other way. Potencies of inconclusive entries are doubtful fits and often do not repeat.

Protein sequences, listed by entry. Tags and fused reporters are not part of them. Lines headed by an entry give the natural chain unless they say otherwise; changes in a name come on top.
UniProt P51450: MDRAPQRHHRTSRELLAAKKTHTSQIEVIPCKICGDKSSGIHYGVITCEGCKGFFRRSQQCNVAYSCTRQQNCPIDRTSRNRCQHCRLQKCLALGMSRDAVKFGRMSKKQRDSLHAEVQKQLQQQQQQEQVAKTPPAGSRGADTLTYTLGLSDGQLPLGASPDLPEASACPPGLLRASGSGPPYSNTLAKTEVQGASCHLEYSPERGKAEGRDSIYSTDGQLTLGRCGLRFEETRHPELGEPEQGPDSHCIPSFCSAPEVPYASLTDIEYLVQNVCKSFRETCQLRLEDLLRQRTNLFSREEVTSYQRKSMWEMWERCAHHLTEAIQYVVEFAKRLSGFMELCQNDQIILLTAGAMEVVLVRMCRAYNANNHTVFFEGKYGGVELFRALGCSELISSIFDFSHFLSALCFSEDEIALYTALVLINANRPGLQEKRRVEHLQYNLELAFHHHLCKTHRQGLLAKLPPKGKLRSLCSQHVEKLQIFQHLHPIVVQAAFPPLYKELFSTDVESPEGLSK

These molecules were tested against Nuclear receptor ROR-gamma (Mus musculus) (UniProt P51450) (assay: qHTS for inhibitors of ROR gamma transcriptional activity). Conditions: Drosophila S2 Gal4-RORgamma UAS-luciferase reporter, 20 h; series mostly up to 53.6 µM.
Summary of the method: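 Luminescence from a UAS-regulated Photinus luciferase reporter in stably transfected Drosophila Schneider cells is measured; decreased signal marks ROR gamma inhibition. Fusion expression is induced by 700 uM copper sulfate for 20 hr.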
Further: nearly all actives have a fitted effect of over 60% in size.
Potency means the concentration at half of the fitted maximal effect.

Potency, inactive:
Cc1cccc(N(C(=O)Cn2nnc(-c3ccc(C)o3)n2)C(C(=O)NC2CCCC2)c2ccncc2)c1 (centres undefined)
CN(C)S(=O)(=O)N1CCC(Oc2ccc(C(=O)N3C[C@H]4CC[C@H]3C4)cc2)CC1
COc1ccc(C)cc1NC(=O)c1ccc2c(=O)n3c(nc2c1)CCCCC3
CCC(C)(C)NC(=O)c1ccc2c(c1)N(CC(=O)NC1CCCC1)C(=O)C(C)(C)O2
CCn1c(=O)cc(SCC(=O)Nc2cccc(C)n2)c2ccccc21
Cc1nnc(SCC(=O)c2ccccc2)n1Cc1ccccc1
Cc1ccc(N(Cc2ccccc2O)C(=O)c2ccccc2F)cc1
Cc1ccc(CNC(=O)[C@@H](NC(=O)Cc2ccccc2)C(C)C)cc1
CCC(Sc1nc2cc(OC)c(OC)cc2c(=O)n1CCc1ccc(OC)c(OC)c1)C(=O)NCCOC (centres undefined)
CCCC(=O)N(CCc1ccccc1)Cc1nc2ccccc2c(=O)[nH]1
CCc1ccc(NCCC(=O)c2ccc(Br)cc2)cc1
O=C(N=Nc1c(O)[nH]c2ccc(F)cc12)C1COc2ccccc2O1 (centres undefined)
O=S(=O)(c1ccccc1Oc1ccc(Cl)cc1Cl)N1CCCCC1
COc1ccccc1C1CCN(Cc2cccc(C(=O)N3CCC(O)CC3)c2)CC1
Cc1ccc(/C=C2\Oc3c(ccc(O)c3CN3CCN(C)CC3)C2=O)cc1
CC1CCC2(CC1)NC(=O)N(CC(=O)NCc1cccs1)C2=O (centres undefined)

Potency, inconclusive:
O=C(Nc1cc(S(=O)(=O)N2CCCCC2)ccc1Oc1ccccc1)C1=COCCO1 35.5 µM [activator, single point]
Cc1ccc(-c2noc(CN(C(=O)c3ccc4c(c3)OCO4)C(C)C)n2)cc1 35.5 µM [activator, single point]
COC(=O)/C(=C\C(=O)c1ccccc1)Nc1ccc(OC)cc1 35.5 µM [inhibitor, single point]
O=C(Nc1nnc(C2CCCO2)s1)c1cccs1 (centres undefined) 3.55 µM [activator, partial curve]
CCCCCOC(=O)C1=C(C)NC(=O)NC1c1ccccc1 (centres undefined) 12.6 µM [activator, single point]
Cc1cccc(Nc2nc(-c3cccs3)cs2)n1 14.1 µM [activator, partial curve, poor fit]
O=C(Cc1ccc(F)cc1)Nc1nnc(-c2ccc(F)cc2)o1 2.82 µM [inhibitor, full curve]
Cc1cc2oc(=O)cc(CN3CCN(C/C=C/c4ccccc4)CC3)c2cc1O 3.16 µM [inhibitor, single point]
CS(=O)(=O)N(CC(=O)N1CCN(c2cccc(Cl)c2)CC1)c1cccc(F)c1 0.1 µM [activator, single point]
Cc1cc(S(=O)(=O)ON2C(=O)c3ccccc3C2=O)ccc1F 17.8 µM [inhibitor, single point]
CCc1c(C)sc(NC(=O)c2cc(C)on2)c1C#N 11.2 µM [inhibitor, partial curve]
COc1cccc(C(=O)N/N=C/c2ccc(OC3CSC3)cc2)c1 17.8 µM [inhibitor, single point]
Cc1ccccc1CSc1nnc(NC(=O)Cc2cccs2)s1 14.1 µM [inhibitor, single point]
O=C(O)c1ccc(CSc2ncnc3c2cnn3Cc2ccccc2)cc1 12.6 µM [inhibitor, partial curve, poor fit]
CCOC(=O)c1c(C)[nH]c(C(=O)OCCOc2ccc(Cl)cc2)c1C 0.708 µM [activator, full curve, poor fit]
O=C(/C=C/c1ccc(F)cc1)NC(=S)NNC(=O)[C@H]1C[C@@H]1c1ccccc1 3.98 µM [inhibitor, partial curve]
Nc1ccc2c(c1)C(=O)c1ccccc1C2=O 12.6 µM [inhibitor, single point]
O=C(Nc1ccc(S(=O)(=O)Nc2ccccc2)cc1)C1COc2ccccc2O1 (centres undefined) 35.5 µM [activator, single point]
CCn1c(SCc2ccc(C)cc2)nnc1C1CCN(S(=O)(=O)c2ccc(OC)cc2)CC1 12.6 µM [activator, single point]
O=C(O)c1cc2cccc(S(=O)(=O)N3CCOCC3)c2cc1O 11.2 µM [inhibitor, partial curve]
O=C(NCc1ccco1)[C@@H]1CSC2c3ccccc3C(=O)N21 (some centres undefined) 35.5 µM [inhibitor, single point]
Cc1ccc(COCCN2CCN(S(=O)(=O)c3ccc(C)cc3)CCC2=O)cc1 35.5 µM [activator, single point]
Cn1c(SCC(=O)c2ccccc2)nnc1-c1cnccn1 35.5 µM [inhibitor, single point]
CCN(Cc1ccncc1)C(=O)CCc1nnc(CCC2CCCCC2)o1 25.1 µM [inhibitor, single point]

Some of these compounds in order of heavy-atom count, ascending.
Potency, inconclusive:
Nc1ccc2c(c1)C(=O)c1ccccc1C2=O 12.6 µM [inhibitor, single point]
O=C(O)c1ccc(CSc2ncnc3c2cnn3Cc2ccccc2)cc1 12.6 µM [inhibitor, partial curve, poor fit]
O=C(Nc1ccc(S(=O)(=O)Nc2ccccc2)cc1)C1COc2ccccc2O1 (centres undefined) 35.5 µM [activator, single point]

Next part.

Potency, active:
c1ccc(-c2cn3c(n2)-c2ccccc2C3)cc1 10 µM
CCOC(=O)c1sc(NC(=S)NC(=O)C23CC4CC(CC(C4)C2)C3)cc1C 6.31 µM
CC(C)c1ccc(NC(=S)NC2CC3C=CC2C3)cc1 (centres undefined) 3.55 µM
Clc1ccc(OCCSCc2nc3ccccc3[nH]2)cc1 5.01 µM
COc1ccc2nc(N3C(=O)/C(=C/c4ccccc4)NC3=S)sc2c1 1.41 µM
Cc1ccc(C)c(NC(=O)CCC(=O)N/N=C/c2cc([N+](=O)[O-])ccc2O)c1 5.62 µM
O=C(/C=C/c1ccccc1)NC(=S)N1CCSCC1 7.94 µM
CCc1cc(Br)ccc1NC(=S)NCCc1ccccc1 5.01 µM
Cc1cc(C)cc(NC(=S)/N=C(\N)Nc2nc(C)c3ccccc3n2)c1 2 µM
